# Laboratory results reported in patent US4292317A, “1,4-Dihydro-quinoline-3-carboxylic acid derivatives, process for their preparation and compositions containing them” (Laboratorie Roger Bellon, priority 1977, dated 1981).
# Legend:
# in vivo [1] = conditions: dog, plasma, po
# in vivo [2] = conditions: dog, urine, po, 50 mg/kg, urine concentration (c), 50 mg/kg p.o., after 24 hours
# Staph. aureus 50,774 = test: M.I.C. for germ used in experimental infection; assay type: cell-based; conditions: Staphylococcus aureus, 18 h, Table 4
# Protocol: (§1) After sterilisation at 120° C., the pH was 6.8.
# (§2) The minimum inhibitory concentrations (M.I.C.) were determined by dilution of the test compounds in this mixture, the concentration ranging from 0.05 to 100 μg/cm^3 in a geometric progression with a factor of 2.
# (§3) The inoculation of the dishes was carried out by means of a multiple inoculator with 10^-3 dilutions of 18 hour old broth cultures.
# (§4) The dishes were placed in an oven at 37° C. and the readings were taken afer an incubation time of 18 hours. The M.I.C. was taken as the lowest concentration which inhibited a culture.
# [3] = tested on: Pseudomonas aeruginosa No. 12; test: M.I.C. for germ used in experimental infection; assay type: cell-based; conditions: 18 h, Table 4, P. aeruginosa No. 12
# Protocol: as §1, §2, §3, §4
# Escherichia coli P 5101 = test: M.I.C. for germ used in experimental infection; assay type: cell-based; conditions: P5101, 18 h, Table 4, E. coli P 5101
# Protocol: as §1, §2, §3, §4
# Strept. pyogenes A. 65 = test: M.I.C. for germ used in experimental infection; assay type: cell-based; conditions: Streptococcus pyogenes, 18 h, Table 4
# Protocol: as §1, §2, §3, §4
# mice = test: in vivo; conditions: i.v. or p.o.
# in vivo [4] = conditions: mouse, in vivo, mice
# [5] = dogs
# Sh. sonnei I.P.S. = test: M.I.C. in vitro, nutrient agar dilution; assay type: cell-based; conditions: Shigella sonnei, 18 h
# Protocol: (§5) The antimicrobial activity of the compounds according to the invention has been investigated in vitro on Gram positive and Gram negative bacteria using, as the culture medium, nutrient agar (N.A.) of the following formulation: […]
# as §1, §2, §3, §4
# (§6) Table 2 gives the M.I.C. of the compounds of the invention containing a chlorine atom in the 6-position against 5 Gram positive bacteria (from 1 to 5) and 17 Gram negative bacteria (from 6 to 22).
# Klebs. pneum. 10.031 = test: M.I.C. in vitro, nutrient agar dilution; assay type: cell-based; conditions: 18 h, Table III
# Protocol: as §5, §1, §2, §3, §4, §6
# Providentia 0223 = test: M.I.C. in vitro, nutrient agar dilution; assay type: cell-based; conditions: 18 h, Table III
# Protocol: as §5, §1, §2, §3, §4, §6
# Ps. aeruginosa 72.345 = test: M.I.C. in vitro, nutrient agar dilution; assay type: cell-based; conditions: Pseudomonas aeruginosa, 18 h; Table III; Pd. aeruginosa 72.345
# Protocol: as §5, §1, §2, §3, §4, §6
# Pr. mirabilis Nig = test: M.I.C. in vitro, nutrient agar dilution; assay type: cell-based; conditions: Proteus mirabilis, 18 h, Table III
# Protocol: as §5, §1, §2, §3, §4, §6
# Ps. aeruginosa A.22 = test: M.I.C. in vitro, nutrient agar dilution; assay type: cell-based; conditions: Pseudomonas aeruginosa, 18 h, Table III
# Protocol: as §5, §1, §2, §3, §4, §6
# Staph. 9.144 = test: M.I.C. in vitro, nutrient agar dilution; assay type: cell-based; conditions: 18 h, Table III
# Protocol: as §5, §1, §2, §3, §4, §6
# Esch. coli 111 B4 = test: M.I.C. in vitro, nutrient agar dilution; assay type: cell-based; conditions: Escherichia coli, 18 h, Table III
# Protocol: as §5, §1, §2, §3, §4, §6
# Pr. vulgaris 12-53 = test: M.I.C. in vitro, nutrient agar dilution; assay type: cell-based; conditions: Proteus vulgaris, 1253, 18 h, Table III
# Protocol: as §5, §1, §2, §3, §4, §6
# Esch. coli 95 I.S.M. = test: M.I.C. in vitro, nutrient agar dilution; assay type: cell-based; conditions: Escherichia coli, 18 h, Table III
# Protocol: as §5, §1, §2, §3, §4, §6
# Strepto A 561 = test: M.I.C. in vitro, nutrient agar dilution; assay type: cell-based; conditions: 18 h, Table III
# Protocol: as §5, §1, §2, §3, §4, §6
# Serratia = test: M.I.C. in vitro, nutrient agar dilution; assay type: cell-based; conditions: 18 h, Table III
# Protocol: as §5, §1, §2, §3, §4, §6
# Pr. morganii A.236 = test: M.I.C. in vitro, nutrient agar dilution; assay type: cell-based; conditions: Morganella morganii, 18 h, Table III
# Protocol: as §5, §1, §2, §3, §4, §6
# S. oranienburg 1066 = test: M.I.C. in vitro, nutrient agar dilution; assay type: cell-based; conditions: Salmonella enterica, 18 h, Table III
# Protocol: as §5, §1, §2, §3, §4, §6
# Esch. coli 54.127 O.M.S. = test: M.I.C. in vitro, nutrient agar dilution; assay type: cell-based; conditions: Escherichia coli, 18 h, Table III
# Protocol: as §5, §1, §2, §3, §4, §6
# Bord. bronchis. 4.617 = test: M.I.C. in vitro, nutrient agar dilution; assay type: cell-based; conditions: 18 h, Table III
# Protocol: as §5, §1, §2, §3, §4, §6
# S. enteritidis Danysz = test: M.I.C. in vitro, nutrient agar dilution; assay type: cell-based; conditions: Salmonella enterica, 18 h, Table III
# Protocol: as §5, §1, §2, §3, §4, §6
# B. subtilis = test: M.I.C. in vitro, nutrient agar dilution; assay type: cell-based; conditions: Bacillus subtilis, 18 h, Table III
# Protocol: as §5, §1, §2, §3, §4, §6
# Arizona 6.211 = test: M.I.C. in vitro, nutrient agar dilution; assay type: cell-based; conditions: 18 h, Table III
# Protocol: as §5, §1, §2, §3, §4, §6
# Staph. 209 P = test: M.I.C. in vitro, nutrient agar dilution; assay type: cell-based; conditions: 18 h, Table III
# Protocol: as §5, §1, §2, §3, §4, §6
# Strepto D.M. 19 = test: M.I.C. in vitro, nutrient agar dilution; assay type: cell-based; conditions: 18 h, Table III
# Protocol: as §5, §1, §2, §3, §4, §6
# Salm. typhi 0901 = test: microbe, parasite or virus in culture; assay type: cell-based; conditions: Salmonella enterica, 18 h
# Protocol: as §5, §1, §2, §3, §4, §6
structure (smiles),measurement,setting,value
"CCn1cc(C(=O)O)c(=O)c2cc(F)c(N3CCN(C)CC3)cc21 [Example 20, 1-Ethyl-6-fluoro-7-(4-methylpiperazinyl)-4-oxo-1,4-dihydro-quinoline-3-carboxylic acid]",concentration at 0.5 h,"in vivo [1]; 25 mg/kg, dog D, 25 mg/kg p.o.",2600 ng/mL
same,concentration at 1 h,"in vivo [1]; 25 mg/kg, dog D, 25 mg/kg p.o.",7200 ng/mL
same,concentration at 2 h,"in vivo [1]; 25 mg/kg, dog D, 25 mg/kg p.o.",7800 ng/mL
same,concentration at 3 h,"in vivo [1]; 25 mg/kg, dog D, 25 mg/kg p.o.",6500 ng/mL
same,concentration at 4 h,"in vivo [1]; 25 mg/kg, dog D, 25 mg/kg p.o.",6100 ng/mL
same,concentration at 6 h,"in vivo [1]; 25 mg/kg, dog D, 25 mg/kg p.o.",4100 ng/mL
same,concentration at 8 h,"in vivo [1]; 25 mg/kg, dog D, 25 mg/kg p.o.",2700 ng/mL
same,concentration at 10 h,"in vivo [1]; 25 mg/kg, dog D, 25 mg/kg p.o.",1600 ng/mL
same,concentration at 24 h,"in vivo [1]; 25 mg/kg, dog D, 25 mg/kg p.o.",100 ng/mL
same,concentration at 0.5 h,"in vivo [1]; 50 mg/kg, dog A, 50 mg/kg p.o.",2600 ng/mL
same,concentration at 1 h,"in vivo [1]; 50 mg/kg, dog A, 50 mg/kg p.o.",3400 ng/mL
same,concentration at 2 h,"in vivo [1]; 50 mg/kg, dog A, 50 mg/kg p.o.",7700 ng/mL
same,concentration at 3 h,"in vivo [1]; 50 mg/kg, dog A, 50 mg/kg p.o.",10800 ng/mL
same,concentration at 4 h,"in vivo [1]; 50 mg/kg, dog A, 50 mg/kg p.o.",9800 ng/mL
same,concentration at 6 h,"in vivo [1]; 50 mg/kg, dog A, 50 mg/kg p.o.",8400 ng/mL
same,concentration at 8 h,"in vivo [1]; 50 mg/kg, dog A, 50 mg/kg p.o.",6400 ng/mL
same,concentration at 10 h,"in vivo [1]; 50 mg/kg, dog A, 50 mg/kg p.o.",5100 ng/mL
same,concentration at 24 h,"in vivo [1]; 50 mg/kg, dog A, 50 mg/kg p.o.",2000 ng/mL
same,concentration at 0.5 h,"in vivo [1]; 50 mg/kg, dog B, 50 mg/kg p.o.",4600 ng/mL
same,concentration at 1 h,"in vivo [1]; 50 mg/kg, dog B, 50 mg/kg p.o.",19200 ng/mL
same,concentration at 2 h,"in vivo [1]; 50 mg/kg, dog B, 50 mg/kg p.o.",23400 ng/mL
same,concentration at 3 h,"in vivo [1]; 50 mg/kg, dog B, 50 mg/kg p.o.",20600 ng/mL
same,concentration at 4 h,"in vivo [1]; 50 mg/kg, dog B, 50 mg/kg p.o.",18000 ng/mL
same,concentration at 6 h,"in vivo [1]; 50 mg/kg, dog B, 50 mg/kg p.o.",13200 ng/mL
same,concentration at 8 h,"in vivo [1]; 50 mg/kg, dog B, 50 mg/kg p.o.",8800 ng/mL
same,concentration at 10 h,"in vivo [1]; 50 mg/kg, dog B, 50 mg/kg p.o.",4500 ng/mL
same,concentration at 24 h,"in vivo [1]; 50 mg/kg, dog B, 50 mg/kg p.o.",300 ng/mL
same,concentration at 2 h,"in vivo [1]; 50 mg/kg, dog C, 50 mg/kg p.o.",4400 ng/mL
same,concentration at 3 h,"in vivo [1]; 50 mg/kg, dog C, 50 mg/kg p.o.",11200 ng/mL
same,concentration at 4 h,"in vivo [1]; 50 mg/kg, dog C, 50 mg/kg p.o.",17200 ng/mL
same,concentration at 6 h,"in vivo [1]; 50 mg/kg, dog C, 50 mg/kg p.o.",16400 ng/mL
same,concentration at 8 h,"in vivo [1]; 50 mg/kg, dog C, 50 mg/kg p.o.",10400 ng/mL
same,concentration at 10 h,"in vivo [1]; 50 mg/kg, dog C, 50 mg/kg p.o.",6200 ng/mL
same,concentration at 24 h,"in vivo [1]; 50 mg/kg, dog C, 50 mg/kg p.o.",800 ng/mL
same,concentration at 24 h,in vivo [2]; dog A,54400 ng/mL
same,concentration at 24 h,in vivo [2]; dog B,72000 ng/mL
same,concentration at 24 h,in vivo [2]; dog C,61000 ng/mL
same,MIC,"Staph. aureus 50,774",0.39 µg/mL
same,MIC,[3],1.56 µg/mL
same,MIC,Escherichia coli P 5101,0.1 µg/mL
same,MIC,Strept. pyogenes A. 65,3.13 µg/mL
same,toxicity (in words),mice,very low toxicity
same,LD50,in vivo [4]; iv,350 mg/kg
same,LD50,in vivo [4]; po,> 2000 mg/kg
same,digestive disorder or disorder of central nervous origin,[5]; 50 mg/kg oral,did not cause any digestive disorder or any disorder of central nervous origin
same,tolerance on oral administration,[5]; oral,very well tolerated
same,MIC,Sh. sonnei I.P.S.,0.01 to 0.02 µg/mL
same,MIC,Klebs. pneum. 10.031,0.05 to 0.1 µg/mL
same,MIC,Providentia 0223,0.8 to 1.6 µg/mL
same,MIC,Ps. aeruginosa 72.345,0.8 µg/mL
same,MIC,Pr. mirabilis Nig,0.2 to 0.4 µg/mL
same,MIC,Ps. aeruginosa A.22,0.8 µg/mL
same,MIC,Staph. 9.144,0.2 µg/mL
same,MIC,Esch. coli 111 B4,0.05 to 0.1 µg/mL
same,MIC,Pr. vulgaris 12-53,0.1 to 0.4 µg/mL
same,MIC,Esch. coli 95 I.S.M.,0.1 µg/mL
same,MIC,Strepto A 561,0.8 to 3.1 µg/mL
same,MIC,Serratia,0.8 µg/mL
same,MIC,Pr. morganii A.236,0.1 to 0.4 µg/mL
same,MIC,S. oranienburg 1066,3.1 µg/mL
same,MIC,Esch. coli 54.127 O.M.S.,0.1 µg/mL
same,MIC,Bord. bronchis. 4.617,0.8 to 3.1 µg/mL
same,MIC,S. enteritidis Danysz,0.1 to 0.2 µg/mL
same,MIC,B. subtilis,0.05 to 0.1 µg/mL
same,MIC,Arizona 6.211,0.1 to 0.2 µg/mL
same,MIC,Staph. 209 P,0.2 µg/mL
same,MIC,Strepto D.M. 19,0.8 to 1.6 µg/mL
same,MIC,Salm. typhi 0901,0.1 µg/mL
